Some results were stated once for a whole list of compounds, not compound by compound.
Target: T1, hLRH-1 (Homo sapiens, UniProt O00482)
T1 construct: expressed in transfected cells; host or cells: TET-On 3G HepG2 cells; Dox-inducible pTRE 3G vector (Clontech)
Assay: RT-qPCR of hLRH-1 target gene CYP24A1 in HepG2 / HepG2-hLRH-1 cells
Assay type: cell-based
Settings: 10 μM, 16 h treatment, low hLRH-1 (−Dox)

Amino acid sequences for entries named in this document (tags omitted).
UniProt O00482, whole entry: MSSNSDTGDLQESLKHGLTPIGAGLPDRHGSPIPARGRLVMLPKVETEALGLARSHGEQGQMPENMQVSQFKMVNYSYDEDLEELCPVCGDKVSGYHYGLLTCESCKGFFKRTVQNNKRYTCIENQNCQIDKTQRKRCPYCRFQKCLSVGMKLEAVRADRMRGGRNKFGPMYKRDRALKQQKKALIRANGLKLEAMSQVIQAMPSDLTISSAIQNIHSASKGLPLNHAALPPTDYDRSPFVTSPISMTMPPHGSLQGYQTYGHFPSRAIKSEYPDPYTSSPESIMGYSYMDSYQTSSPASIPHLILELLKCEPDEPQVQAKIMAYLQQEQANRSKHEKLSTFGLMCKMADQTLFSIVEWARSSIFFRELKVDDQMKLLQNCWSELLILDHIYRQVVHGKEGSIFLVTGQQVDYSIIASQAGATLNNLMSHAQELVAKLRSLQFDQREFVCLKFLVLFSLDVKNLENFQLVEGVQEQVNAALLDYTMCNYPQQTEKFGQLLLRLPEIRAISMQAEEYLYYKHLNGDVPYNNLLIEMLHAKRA

## CCCNC(=O)c1cc(C(C)(C)C)cc(C(C)(C)C)c1O [Compound 8, 3,5-di-tert-butyl-2-hydroxy-N-propylbenzamide]
  increase of endogenous CYP24A1 transcript levels: 3-4 fold

Source: patent publication US10980755B2, “LRH-1 modulators” (THE REGENTS OF THE UNIVERSITY OF CALIFORNIA, priority 2015, dated 2021)
